Results: PMC12548414
Out of some 1,600 compounds screened, about 20 (1%) showed an effect of 50% or more. The list shows a part of the results.

Tested on: T1, E. coli pLC1021 (luc-trpAt trans-translation reporter)
T1 construct: pLC1021 luc-trpAt reporter strain
Design: species or system Escherichia coli pLC1021; luc-trpAt non-stop luciferase reporter; luminescence rises when trans-translation is inhibited; normalized to KKL-35 and DMSO
Details: 2 h, 20 µM
Procedure: The luciferase screen was performed as previously described ([16]). […] 48 µL of cells was transferred to white 96-well plates, and 2 µL DMSO or 20 µM compound, or 20 µM KKL-35 was added. Plates were sealed with adhesive film, vortexed gently to mix, and incubated at room temperature for 2 h. 50 µL Bright-Glo reagent (Promega, Madison, WI) was added to each well, and the plates were sealed with adhesive film, vortexed vigorously, and incubated for an additional 10 min at room temperature. Luminescence was measured at 560 nm using a SpectraMax i3 microplate reader and readings for each plate were normalized to the average of three KKL-35-treated wells (positive control) and three DMSO-treated wells (negative control) within the plate to correct for plate-to-plate and day-to-day variations. Results from at least two biological repeats were averaged, and GraphPad Prism was used to plot the data. We screened a library of 1,601 anti-tubercular small molecules for their ability to inhibit trans-translation using a luciferase reporter in Escherichia coli. In this luc-trpAt reporter, the firefly luciferase gene has a trpA transcriptional terminator before the stop codon, such that luciferase is translated from a non-stop mRNA ([16]). When trans-translation is active, the luciferase will be tagged and degraded, but when trans-translation is inhibited, active luciferase will accumulate, resulting in a luminescent signal when luciferin is added. Luciferase activity was measured after growth in the presence of compounds from the library at 20 µM, using the known trans-translation inhibitor KKL-35 as a positive control (Fig. 1A) ([16], [17]). Compounds with activity one standard deviation above the median were scored as positive (Fig. S1 and Table S1).

SMILES	% activation [%]
Cc1ccc(S(=O)(=O)NC(=O)Oc2cccc3cccnc23)cc1 [KKL-0779]	13
CCCCN1C(=O)NC(=O)/C(=C(O)\C=C\c2ccc3c(c2)OCO3)C1=O [KKL-1019]	13
Cn1cc(NC(=O)c2cc(NC(=O)CNC(=N)N)cn2C)cc1C(=O)NCCC(=N)N [KKL-1676]	0
COc1cccc(OCCNC(=O)c2cc([N+](=O)[O-])cc([N+](=O)[O-])c2)c1 [KKL-1137]	10
CN1C(=O)C(=C(Nc2ccccc2)SCc2ccc(Cl)cc2)C(=O)N(C)C1=O [KKL-0988]	10
CN(C)c1ccc(/C=C/C=C2/C(=O)NC(=O)N(c3ccccc3)C2=O)cc1 [KKL-0969]	0
Cc1cc(C)c(N2C(=O)NC(=O)/C(=C\c3ccc[nH]3)C2=O)c(C)c1 [KKL-0769]	0
CN(C)CCC(=O)c1ccc(Br)cc1 [KKL-0775]	0
CN1C(=O)C(=C(Nc2ccccc2)SCc2ccccc2Cl)C(=O)N(C)C1=O [KKL-0897]	0
O=C1NC(=O)N(Cc2ccccc2Cl)C(=O)/C1=C/c1ccc[nH]1 [KKL-1089]	5
Cc1ccccc1-n1ncc2c([N+](=O)[O-])cc([N+](=O)[O-])cc21 [KKL-1128]	0
O=[N+]([O-])c1ccc(-n2nnnc2-c2ccccc2)c([N+](=O)[O-])c1 [KKL-1067]	0
CSCC[C@H](NC(=O)c1cc([N+](=O)[O-])cc([N+](=O)[O-])c1)c1nc2ccccc2[nH]1 [KKL-0838]	0
O=C1N(Cc2ccccc2Cl)c2ccc(Br)cc2C1(O)c1c[nH]c2ccccc12 (stereo not shown) [KKL-1587]	0
Nc1c2c(nc3sc4c(c13)CCCC4)CCCC2 [KKL-1409]	0
COc1ccc(C2(CNC(=O)c3cc([N+](=O)[O-])cc([N+](=O)[O-])c3)CCCC2)cc1OC [KKL-1661]	0
O=C1NC(=O)N(CCc2ccccc2)C(=O)/C1=C(O)/C=C/c1ccc2c(c1)OCO2 [KKL-1029]	0
CCOC(=O)COc1ccc2c(c1)c(C(=O)OCC)c(C)n2CC [KKL-1456]	0
O=C(OC(c1ccccc1)c1nccc2ccccc12)c1cc([N+](=O)[O-])cc([N+](=O)[O-])c1 (stereo not shown) [KKL-0386]	1
O=C(NCCN1CCOCC1)c1ccc([N+](=O)[O-])cc1[N+](=O)[O-] [KKL-1651]	0
OC(COCC(F)(F)C(F)(F)C(F)(F)C(F)F)Cn1c2ccc(Cl)cc2c2cc(Cl)ccc21 (stereo not shown) [KKL-1015]	0
Cc1ccc(Oc2cc(NC(=O)CCCn3nc(C)c([N+](=O)[O-])c3C)cc([N+](=O)[O-])c2)cc1 [KKL-0453]	0
O=C(NCc1ccco1)c1cc([N+](=O)[O-])cc([N+](=O)[O-])c1 [KKL-1626]	0
O=C1c2ccccc2C(=O)N1CCCCN(C(=O)c1cc([N+](=O)[O-])cc([N+](=O)[O-])c1)c1ccc(Cl)cc1 [KKL-0362]	0
CC[C@@H]1C[C@H]2CC[C@H](O2)[C@H](C)C(=O)O[C@@H](C)C[C@@H]2CC[C@@H](O2)[C@@H](C)C(=O)O[C@H](C)C[C@H]2CC[C@H](O2)[C@H](C)C(=O)O[C@@H](C)C[C@@H]2CC[C@@H](O2)[C@@H](C)C(=O)O1 [KKL-0397]	0

Part of the list above in order of heavy-atom count, rising.
SMILES	% activation [%]
O=[N+]([O-])c1ccc(-n2nnnc2-c2ccccc2)c([N+](=O)[O-])c1 [KKL-1067]	0
Cc1ccc(Oc2cc(NC(=O)CCCn3nc(C)c([N+](=O)[O-])c3C)cc([N+](=O)[O-])c2)cc1 [KKL-0453]	0
O=C1c2ccccc2C(=O)N1CCCCN(C(=O)c1cc([N+](=O)[O-])cc([N+](=O)[O-])c1)c1ccc(Cl)cc1 [KKL-0362]	0
